Results on 1 substance are retold here after article PMC5546437.

Sequences of proteins named here, by UniProt entry; tags and fusion partners are left off.
UniProt P38398: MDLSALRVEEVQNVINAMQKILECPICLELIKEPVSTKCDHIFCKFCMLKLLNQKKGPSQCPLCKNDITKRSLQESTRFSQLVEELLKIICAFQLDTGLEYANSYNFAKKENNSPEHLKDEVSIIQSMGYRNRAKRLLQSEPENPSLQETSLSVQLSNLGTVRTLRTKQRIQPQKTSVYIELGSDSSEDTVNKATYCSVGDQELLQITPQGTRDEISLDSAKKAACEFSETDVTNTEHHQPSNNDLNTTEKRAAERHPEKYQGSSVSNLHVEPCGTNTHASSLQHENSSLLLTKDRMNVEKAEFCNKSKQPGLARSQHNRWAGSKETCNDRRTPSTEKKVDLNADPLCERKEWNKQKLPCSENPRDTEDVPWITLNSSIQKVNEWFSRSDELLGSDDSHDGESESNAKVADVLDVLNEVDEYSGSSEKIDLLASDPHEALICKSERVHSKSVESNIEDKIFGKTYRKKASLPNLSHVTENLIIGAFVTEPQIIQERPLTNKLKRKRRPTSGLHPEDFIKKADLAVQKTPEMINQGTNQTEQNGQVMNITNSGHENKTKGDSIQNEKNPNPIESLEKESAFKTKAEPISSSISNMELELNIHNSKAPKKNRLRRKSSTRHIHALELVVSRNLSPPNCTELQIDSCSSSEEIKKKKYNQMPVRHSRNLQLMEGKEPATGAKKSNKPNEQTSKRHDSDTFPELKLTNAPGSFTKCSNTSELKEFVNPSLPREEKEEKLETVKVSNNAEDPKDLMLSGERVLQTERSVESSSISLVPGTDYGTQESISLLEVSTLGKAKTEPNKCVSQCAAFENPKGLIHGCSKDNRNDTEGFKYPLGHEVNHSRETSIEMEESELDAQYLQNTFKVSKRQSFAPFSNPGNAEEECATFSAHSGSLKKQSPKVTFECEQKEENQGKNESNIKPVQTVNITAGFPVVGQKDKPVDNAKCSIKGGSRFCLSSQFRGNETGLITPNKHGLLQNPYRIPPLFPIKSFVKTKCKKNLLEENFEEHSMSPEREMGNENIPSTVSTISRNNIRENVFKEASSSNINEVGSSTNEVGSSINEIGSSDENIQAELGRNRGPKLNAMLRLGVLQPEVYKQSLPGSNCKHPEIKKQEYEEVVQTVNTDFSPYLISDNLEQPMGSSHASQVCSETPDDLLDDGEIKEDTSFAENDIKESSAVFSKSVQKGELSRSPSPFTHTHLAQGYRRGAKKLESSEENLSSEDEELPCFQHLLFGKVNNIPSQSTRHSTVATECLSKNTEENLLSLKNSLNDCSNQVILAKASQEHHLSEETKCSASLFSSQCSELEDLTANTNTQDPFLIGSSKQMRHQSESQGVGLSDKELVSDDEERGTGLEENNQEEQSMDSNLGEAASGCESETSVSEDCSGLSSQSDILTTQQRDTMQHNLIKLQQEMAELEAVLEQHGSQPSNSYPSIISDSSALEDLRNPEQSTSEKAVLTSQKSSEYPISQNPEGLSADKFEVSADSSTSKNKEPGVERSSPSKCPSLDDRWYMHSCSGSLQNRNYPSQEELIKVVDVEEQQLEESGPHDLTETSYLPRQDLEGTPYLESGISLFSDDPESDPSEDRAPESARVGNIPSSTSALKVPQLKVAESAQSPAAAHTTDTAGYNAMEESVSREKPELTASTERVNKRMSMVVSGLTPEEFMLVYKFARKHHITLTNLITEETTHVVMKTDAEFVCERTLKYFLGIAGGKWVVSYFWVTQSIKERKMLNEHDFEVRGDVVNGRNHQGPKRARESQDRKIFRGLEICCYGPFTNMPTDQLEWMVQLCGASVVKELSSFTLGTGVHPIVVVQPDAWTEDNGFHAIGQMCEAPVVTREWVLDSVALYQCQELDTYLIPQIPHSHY

The assay concerns the target BRCA1, endogenous in HCT-15 cells (human (endogenous in HCT-15)) (UniProt P38398). In words: co-IP; lysates of control and CPT-treated (5 uM SN-38) HCT-15 cells, endogenous proteins; immunoprecipitation with anti-BRCA1, anti-topoI or IgG, then immunoblot.

Results are given in words; binding and its absence hold for the method and conditions named. In cells and extracts the contact can be indirect. Some entries that bind do so weakly or less than the wild type.

Turning to “DNA topoisomerase I (topoI), endogenous in HCT-15 cells (from UniProt P11387 1-765) (enzyme)”, the binding result is on record as “binds”.
